Where a name gives a salt, the structure may show the parent alone. Some of the results follow. Hit calls seldom repeat between salt and free forms of one compound.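 Kinases were expressed as nanoluciferase fusions in K562 cells and luminescence was read every 4 h between 2 and 18 h as percent of control, DMSO set to 100% and a positive control to 0%. A time point counts as decreased when the signal drops significantly (2 sigma). The hit call is the authors' own, does not follow from the count of time points alone, and its rule is not shown.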
What was measured:
Experiment in all cases: kinase-Nluc reporter destabilization hit call (1 = scored as downregulated) (binary); higher = compound decreases kinase abundance
Details in all cases: K562; 2-18 h
IRAK3 = IRAK3 (UniProt Q9Y616)
JAK1 = JAK1 (UniProt P23458)
LCK = LCK (UniProt P06239)
LIMK1 = LIMK1 (UniProt P53667)
LIMK2 = LIMK2 (UniProt P53671)
LMTK2 = LMTK2 (UniProt Q8IWU2)
LYN = LYN (UniProt P07948)
MAP2K1 = MAP2K1 (UniProt Q02750)
MAP2K2 = MAP2K2 (UniProt P36507)
MAP4K2 = MAP4K2 (UniProt Q12851)
MAPK1 = MAPK1 (UniProt P28482)
MAPK4 = MAPK4 (UniProt P31152)
MAPKAPK2 = MAPKAPK2 (UniProt P49137)
MKNK1 = MKNK1 (UniProt Q9BUB5)
NTRK2 = NTRK2 (UniProt Q16620)
NTRK3 = NTRK3 (UniProt Q16288)
PAK4 = PAK4 (UniProt O96013)
PBK = PBK (UniProt Q96KB5)
PDGFRB = PDGFRB (UniProt P09619)
PDK1 = PDK1 (UniProt Q15118)

By UniProt entry, the sequences of proteins in these tests, tags left out. Where a name states a change or a piece, a line headed by the entry shows the natural chain unless it says otherwise.
UniProt Q9Y616: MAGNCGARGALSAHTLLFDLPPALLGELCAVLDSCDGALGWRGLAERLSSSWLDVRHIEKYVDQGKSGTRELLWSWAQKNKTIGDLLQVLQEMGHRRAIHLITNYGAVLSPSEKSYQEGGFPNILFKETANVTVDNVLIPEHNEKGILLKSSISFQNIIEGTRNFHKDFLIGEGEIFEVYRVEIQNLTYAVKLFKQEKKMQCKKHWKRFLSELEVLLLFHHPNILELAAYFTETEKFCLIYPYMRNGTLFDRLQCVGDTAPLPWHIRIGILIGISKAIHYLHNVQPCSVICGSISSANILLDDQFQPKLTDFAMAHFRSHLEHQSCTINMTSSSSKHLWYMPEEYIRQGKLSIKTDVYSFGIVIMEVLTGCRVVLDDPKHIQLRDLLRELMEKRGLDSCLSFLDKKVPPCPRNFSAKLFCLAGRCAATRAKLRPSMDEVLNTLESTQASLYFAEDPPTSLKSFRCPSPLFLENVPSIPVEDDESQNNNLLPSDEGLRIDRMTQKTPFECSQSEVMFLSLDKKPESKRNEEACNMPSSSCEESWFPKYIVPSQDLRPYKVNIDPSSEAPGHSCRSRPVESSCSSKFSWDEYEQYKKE
UniProt P23458: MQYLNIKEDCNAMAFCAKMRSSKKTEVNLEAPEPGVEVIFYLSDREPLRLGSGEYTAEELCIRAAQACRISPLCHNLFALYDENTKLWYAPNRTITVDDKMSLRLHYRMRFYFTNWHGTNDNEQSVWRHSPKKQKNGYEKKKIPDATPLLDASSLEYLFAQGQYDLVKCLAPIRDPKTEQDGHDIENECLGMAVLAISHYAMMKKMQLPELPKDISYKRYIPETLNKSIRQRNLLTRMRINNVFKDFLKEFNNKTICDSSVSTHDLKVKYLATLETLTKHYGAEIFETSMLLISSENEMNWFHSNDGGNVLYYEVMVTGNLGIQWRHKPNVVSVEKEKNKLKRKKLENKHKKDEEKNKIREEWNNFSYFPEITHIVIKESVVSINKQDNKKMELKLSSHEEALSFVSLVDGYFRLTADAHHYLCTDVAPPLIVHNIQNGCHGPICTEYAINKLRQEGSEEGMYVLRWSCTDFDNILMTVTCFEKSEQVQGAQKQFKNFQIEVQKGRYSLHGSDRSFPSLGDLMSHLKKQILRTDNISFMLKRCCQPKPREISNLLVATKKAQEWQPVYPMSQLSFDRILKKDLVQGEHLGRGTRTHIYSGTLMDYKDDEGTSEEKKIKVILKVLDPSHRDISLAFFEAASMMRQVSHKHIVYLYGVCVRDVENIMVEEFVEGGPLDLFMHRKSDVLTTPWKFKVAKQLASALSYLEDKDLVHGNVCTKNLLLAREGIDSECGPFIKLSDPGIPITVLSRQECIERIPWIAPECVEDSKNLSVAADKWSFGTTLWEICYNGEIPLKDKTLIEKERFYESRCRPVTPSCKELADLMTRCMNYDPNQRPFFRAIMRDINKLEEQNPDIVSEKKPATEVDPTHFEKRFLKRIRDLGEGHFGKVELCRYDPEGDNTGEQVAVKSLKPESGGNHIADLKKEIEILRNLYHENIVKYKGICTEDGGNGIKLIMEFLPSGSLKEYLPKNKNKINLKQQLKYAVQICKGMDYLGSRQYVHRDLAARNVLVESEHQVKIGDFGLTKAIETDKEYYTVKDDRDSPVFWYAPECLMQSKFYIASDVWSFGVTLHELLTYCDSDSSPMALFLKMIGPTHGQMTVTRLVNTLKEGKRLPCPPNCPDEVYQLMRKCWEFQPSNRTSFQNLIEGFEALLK
UniProt P06239: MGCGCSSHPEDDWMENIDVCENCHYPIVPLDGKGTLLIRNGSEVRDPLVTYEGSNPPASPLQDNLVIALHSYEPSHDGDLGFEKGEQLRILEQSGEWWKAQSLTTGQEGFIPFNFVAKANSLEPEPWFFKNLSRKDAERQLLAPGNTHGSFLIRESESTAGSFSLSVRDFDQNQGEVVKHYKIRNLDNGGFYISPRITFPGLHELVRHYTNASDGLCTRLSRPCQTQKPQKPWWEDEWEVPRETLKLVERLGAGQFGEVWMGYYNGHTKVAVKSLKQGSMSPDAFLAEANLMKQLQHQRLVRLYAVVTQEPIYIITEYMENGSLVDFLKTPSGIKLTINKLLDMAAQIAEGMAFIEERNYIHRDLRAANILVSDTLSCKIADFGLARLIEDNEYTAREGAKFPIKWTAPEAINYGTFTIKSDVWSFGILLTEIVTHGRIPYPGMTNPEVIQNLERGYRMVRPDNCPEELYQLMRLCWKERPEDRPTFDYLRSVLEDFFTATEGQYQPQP
UniProt P53671: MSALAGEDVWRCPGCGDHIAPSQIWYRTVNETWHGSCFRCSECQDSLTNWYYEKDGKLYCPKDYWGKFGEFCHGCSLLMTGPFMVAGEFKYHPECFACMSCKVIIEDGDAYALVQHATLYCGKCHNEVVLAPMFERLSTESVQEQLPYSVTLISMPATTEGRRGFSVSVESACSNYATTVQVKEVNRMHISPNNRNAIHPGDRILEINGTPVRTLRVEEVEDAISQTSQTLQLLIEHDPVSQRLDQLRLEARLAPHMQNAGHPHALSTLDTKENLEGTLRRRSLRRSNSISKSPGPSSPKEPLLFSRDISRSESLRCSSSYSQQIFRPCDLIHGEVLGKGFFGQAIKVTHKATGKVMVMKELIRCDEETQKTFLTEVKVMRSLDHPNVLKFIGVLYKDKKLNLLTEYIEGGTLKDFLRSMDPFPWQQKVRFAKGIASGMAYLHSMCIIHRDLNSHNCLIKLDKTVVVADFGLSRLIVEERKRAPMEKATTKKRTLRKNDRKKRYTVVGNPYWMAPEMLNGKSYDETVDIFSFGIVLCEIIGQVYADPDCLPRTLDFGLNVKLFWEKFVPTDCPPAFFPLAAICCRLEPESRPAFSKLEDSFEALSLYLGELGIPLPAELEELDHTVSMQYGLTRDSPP
UniProt Q12851: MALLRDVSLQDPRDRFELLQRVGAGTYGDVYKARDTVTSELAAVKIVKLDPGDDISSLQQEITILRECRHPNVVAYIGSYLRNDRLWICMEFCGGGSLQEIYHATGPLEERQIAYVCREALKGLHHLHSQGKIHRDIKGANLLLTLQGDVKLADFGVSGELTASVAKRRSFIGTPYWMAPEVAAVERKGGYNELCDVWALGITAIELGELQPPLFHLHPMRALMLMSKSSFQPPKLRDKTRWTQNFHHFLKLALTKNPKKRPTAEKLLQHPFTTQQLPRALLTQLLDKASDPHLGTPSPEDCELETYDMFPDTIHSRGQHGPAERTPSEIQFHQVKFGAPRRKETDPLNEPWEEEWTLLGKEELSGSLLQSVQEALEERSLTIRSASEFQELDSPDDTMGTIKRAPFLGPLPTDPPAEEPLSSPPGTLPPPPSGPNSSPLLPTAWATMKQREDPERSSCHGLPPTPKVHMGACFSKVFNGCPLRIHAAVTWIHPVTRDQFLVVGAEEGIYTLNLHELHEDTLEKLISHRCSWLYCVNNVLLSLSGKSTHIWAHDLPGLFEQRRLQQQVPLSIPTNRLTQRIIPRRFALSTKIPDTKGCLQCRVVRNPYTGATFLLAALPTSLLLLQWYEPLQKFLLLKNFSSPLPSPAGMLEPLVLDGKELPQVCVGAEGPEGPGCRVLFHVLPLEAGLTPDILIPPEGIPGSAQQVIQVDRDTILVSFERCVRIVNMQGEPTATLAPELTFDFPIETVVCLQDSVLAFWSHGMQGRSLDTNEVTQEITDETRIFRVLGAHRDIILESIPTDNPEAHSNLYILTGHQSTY
UniProt P31152, whole entry: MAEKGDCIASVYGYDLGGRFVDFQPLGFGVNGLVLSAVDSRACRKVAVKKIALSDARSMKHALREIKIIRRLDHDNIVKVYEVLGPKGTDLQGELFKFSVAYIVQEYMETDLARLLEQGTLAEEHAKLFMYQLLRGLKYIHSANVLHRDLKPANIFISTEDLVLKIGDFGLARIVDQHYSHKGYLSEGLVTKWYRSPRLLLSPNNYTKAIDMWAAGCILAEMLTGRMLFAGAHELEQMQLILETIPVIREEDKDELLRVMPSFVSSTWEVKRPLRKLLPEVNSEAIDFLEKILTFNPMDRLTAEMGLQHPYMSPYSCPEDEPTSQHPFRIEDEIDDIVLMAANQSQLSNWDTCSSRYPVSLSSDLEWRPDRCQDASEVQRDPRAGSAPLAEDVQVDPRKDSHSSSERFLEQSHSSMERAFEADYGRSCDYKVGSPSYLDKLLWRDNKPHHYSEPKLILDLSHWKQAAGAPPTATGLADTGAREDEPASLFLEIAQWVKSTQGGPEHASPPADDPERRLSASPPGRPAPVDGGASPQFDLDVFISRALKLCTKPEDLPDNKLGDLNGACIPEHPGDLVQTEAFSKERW
UniProt P49137, whole entry, looked up: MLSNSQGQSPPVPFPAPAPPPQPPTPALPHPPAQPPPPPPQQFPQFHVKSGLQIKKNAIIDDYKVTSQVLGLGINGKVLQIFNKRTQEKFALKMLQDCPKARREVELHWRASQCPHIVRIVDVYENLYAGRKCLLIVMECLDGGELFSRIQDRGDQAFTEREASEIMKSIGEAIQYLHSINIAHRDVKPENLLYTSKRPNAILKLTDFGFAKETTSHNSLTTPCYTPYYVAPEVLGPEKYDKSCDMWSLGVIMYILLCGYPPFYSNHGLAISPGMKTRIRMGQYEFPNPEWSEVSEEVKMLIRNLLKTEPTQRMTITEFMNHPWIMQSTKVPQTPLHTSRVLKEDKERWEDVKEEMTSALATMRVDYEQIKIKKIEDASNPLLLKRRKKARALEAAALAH
UniProt Q16620, whole entry, looked up: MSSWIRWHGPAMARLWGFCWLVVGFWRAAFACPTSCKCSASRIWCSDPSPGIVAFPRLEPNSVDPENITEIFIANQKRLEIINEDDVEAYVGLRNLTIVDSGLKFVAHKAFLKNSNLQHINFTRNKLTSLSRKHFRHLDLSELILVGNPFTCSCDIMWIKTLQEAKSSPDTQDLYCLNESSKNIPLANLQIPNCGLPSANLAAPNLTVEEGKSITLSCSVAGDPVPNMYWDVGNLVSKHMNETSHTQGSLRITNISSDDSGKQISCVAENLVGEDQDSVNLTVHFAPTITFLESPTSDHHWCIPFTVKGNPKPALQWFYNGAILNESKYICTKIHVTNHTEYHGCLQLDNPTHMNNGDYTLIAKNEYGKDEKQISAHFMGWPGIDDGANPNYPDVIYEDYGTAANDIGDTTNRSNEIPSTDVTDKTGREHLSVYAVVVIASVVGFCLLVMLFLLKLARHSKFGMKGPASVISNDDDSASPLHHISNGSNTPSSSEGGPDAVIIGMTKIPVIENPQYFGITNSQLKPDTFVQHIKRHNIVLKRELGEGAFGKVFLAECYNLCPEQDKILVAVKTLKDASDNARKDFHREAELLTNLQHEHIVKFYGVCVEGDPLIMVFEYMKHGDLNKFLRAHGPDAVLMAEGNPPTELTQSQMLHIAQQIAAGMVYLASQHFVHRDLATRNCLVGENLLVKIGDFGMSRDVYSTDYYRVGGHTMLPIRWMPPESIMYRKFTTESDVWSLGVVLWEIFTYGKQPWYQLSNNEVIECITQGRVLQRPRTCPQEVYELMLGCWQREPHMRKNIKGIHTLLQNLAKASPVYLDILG
UniProt Q16288, whole entry, looked up: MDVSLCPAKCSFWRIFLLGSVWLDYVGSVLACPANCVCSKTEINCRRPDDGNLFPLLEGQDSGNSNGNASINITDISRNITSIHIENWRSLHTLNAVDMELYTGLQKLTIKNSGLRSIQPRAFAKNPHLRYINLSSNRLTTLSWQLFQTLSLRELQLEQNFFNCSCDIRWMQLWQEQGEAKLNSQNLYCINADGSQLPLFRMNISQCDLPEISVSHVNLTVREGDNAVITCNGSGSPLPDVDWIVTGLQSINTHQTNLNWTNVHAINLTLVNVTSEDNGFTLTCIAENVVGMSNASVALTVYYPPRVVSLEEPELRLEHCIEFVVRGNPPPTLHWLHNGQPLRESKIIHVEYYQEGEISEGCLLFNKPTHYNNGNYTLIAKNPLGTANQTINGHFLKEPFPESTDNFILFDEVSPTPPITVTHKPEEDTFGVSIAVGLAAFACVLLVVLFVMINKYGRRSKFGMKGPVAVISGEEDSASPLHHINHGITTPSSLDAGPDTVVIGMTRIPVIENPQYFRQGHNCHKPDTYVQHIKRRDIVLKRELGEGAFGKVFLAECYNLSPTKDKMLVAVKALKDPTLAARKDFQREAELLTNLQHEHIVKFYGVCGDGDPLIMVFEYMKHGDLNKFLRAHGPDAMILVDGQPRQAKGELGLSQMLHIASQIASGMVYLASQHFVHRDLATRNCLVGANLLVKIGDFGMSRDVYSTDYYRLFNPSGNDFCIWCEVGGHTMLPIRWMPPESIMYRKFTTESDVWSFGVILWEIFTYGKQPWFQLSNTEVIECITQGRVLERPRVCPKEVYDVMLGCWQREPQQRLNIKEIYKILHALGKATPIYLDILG

Measured: kinase-Nluc reporter destabilization hit call

COc1ncc(Nc2ncc([C@@H](C)N3CCN(S(C)(=O)=O)CC3)cc2-c2nc(C)nc(N)n2)cc1F (10 µM)
inactive: IRAK3 = 0 | JAK1 = 0 | LCK 0 | LIMK1 = 0 | LIMK2 = 0 | LMTK2 = 0 | LYN 0 | MAP2K1 = 0 | MAP2K2 = 0 | MAP4K2 = 0 | MAPK1 = 0 | MAPK4 = 0 | MAPKAPK2 = 0 | MKNK1 = 0 | NTRK2 = 0 | NTRK3 = 0 | PAK4 = 0 | PBK 0 | PDGFRB 0 | PDK1 = 0

COc1c(C)c(C(=O)c2ccc(N)c(C(=O)O)c2)n2ccccc12 (10 µM)
inactive: IRAK3 = 0 | JAK1 = 0 | LCK 0 | LIMK1 = 0 | LIMK2 = 0 | LMTK2 = 0 | LYN 0 | MAP2K1 = 0 | MAP2K2 = 0 | MAP4K2 = 0 | MAPK1 = 0 | MAPK4 = 0 | MAPKAPK2 = 0 | MKNK1 = 0 | NTRK2 = 0 | NTRK3 = 0 | PAK4 = 0 | PBK 0 | PDGFRB 0 | PDK1 = 0

[O-][n+]1cccc(-c2nc3c(Cl)cccc3cc2[C@@H](Nc2ncnc3cccnc23)C(F)(F)F)c1 [Seletalisib] (10 µM)
inactive: IRAK3 = 0 | JAK1 = 0 | LCK 0 | LIMK1 = 0 | LIMK2 = 0 | LMTK2 = 0 | LYN 0 | MAP2K1 = 0 | MAP2K2 = 0 | MAP4K2 = 0 | MAPK1 = 0 | MAPK4 = 0 | MAPKAPK2 = 0 | MKNK1 = 0 | NTRK2 = 0 | NTRK3 = 0 | PAK4 = 0 | PBK 0 | PDGFRB 0 | PDK1 = 0

CC(C)(O)[C@@H]1CC[C@](C)([C@H]2[C@@H](O)C[C@@]3(C)[C@@H]4C[C@H](O[C@@H]5O[C@H](CO)[C@@H](O)[C@H](O)[C@H]5O)[C@H]5C(C)(C)[C@@H](O[C@@H]6OC[C@@H](O)[C@H](O)[C@H]6O[C@@H]6O[C@H](CO)[C@@H](O)[C@H](O)[C@H]6O)CC[C@@]56C[C@@]46CC[C@]23C)O1 [Astragaloside VI] (10 µM)
inactive: IRAK3 = 0 | JAK1 = 0 | LCK 0 | LIMK1 = 0 | LIMK2 = 0 | LMTK2 = 0 | LYN 0 | MAP2K1 = 0 | MAP2K2 = 0 | MAP4K2 = 0 | MAPK1 = 0 | MAPK4 = 0 | MAPKAPK2 = 0 | MKNK1 = 0 | NTRK2 = 0 | NTRK3 = 0 | PAK4 = 0 | PBK 0 | PDGFRB 0 | PDK1 = 0

CN1CC[C@H](c2c(O)cc(O)c3c(=O)cc(-c4ccc(C(F)(F)F)cc4Cl)oc23)[C@H]1CO [(2S,3R)-Voruciclib (hydrochloride)] (2.5 µM)
inactive: IRAK3 = 0 | JAK1 = 0 | LCK 0 | LIMK1 = 0 | LIMK2 = 0 | LMTK2 = 0 | LYN 0 | MAP2K1 = 0 | MAP2K2 = 0 | MAP4K2 = 0 | MAPK1 = 0 | MAPK4 = 0 | MAPKAPK2 = 0 | MKNK1 = 0 | NTRK2 = 0 | NTRK3 = 0 | PAK4 = 0 | PBK 0 | PDGFRB 0 | PDK1 = 0

Nc1n[nH]c2cc(-c3ccc(=O)n(Cc4cccc(Cl)c4)c3)ccc12 (10 µM)
inactive: IRAK3 = 0 | JAK1 = 0 | LCK 0 | LIMK1 = 0 | LIMK2 = 0 | LMTK2 = 0 | LYN 0 | MAP2K1 = 0 | MAP2K2 = 0 | MAP4K2 = 0 | MAPK1 = 0 | MAPK4 = 0 | MAPKAPK2 = 0 | MKNK1 = 0 | NTRK2 = 0 | NTRK3 = 0 | PAK4 = 0 | PBK 0 | PDGFRB 0 | PDK1 = 0

N#Cc1ccc(-c2c(-c3ncn[nH]3)sc(N3CCOCC3)c2C#N)c(F)c1 (10 µM)
inactive: IRAK3 = 0 | JAK1 = 0 | LCK 0 | LIMK1 = 0 | LIMK2 = 0 | LMTK2 = 0 | LYN 0 | MAP2K1 = 0 | MAP2K2 = 0 | MAP4K2 = 0 | MAPK1 = 0 | MAPK4 = 0 | MAPKAPK2 = 0 | MKNK1 = 0 | NTRK2 = 0 | NTRK3 = 0 | PAK4 = 0 | PBK 0 | PDGFRB 0 | PDK1 = 0

O=C(CCCCCn1cc(Nc2ncc(Cl)c(Nc3ccc(Cl)cc3)n2)cn1)NO (2.5 µM)
inactive: IRAK3 = 0 | JAK1 = 0 | LCK 0 | LIMK1 = 0 | LIMK2 = 0 | LMTK2 = 0 | LYN 0 | MAP2K1 = 0 | MAP2K2 = 0 | MAP4K2 = 0 | MAPK1 = 0 | MAPK4 = 0 | MAPKAPK2 = 0 | MKNK1 = 0 | NTRK2 = 0 | NTRK3 = 0 | PAK4 = 0 | PBK 0 | PDGFRB 0 | PDK1 = 0

Pulled by structure from above, two records:
COc1c(C)c(C(=O)c2ccc(N)c(C(=O)O)c2)n2ccccc12 (10 µM)
inactive: IRAK3 = 0 | JAK1 = 0 | LCK 0 | LIMK1 = 0 | LIMK2 = 0 | LMTK2 = 0 | LYN 0 | MAP2K1 = 0 | MAP2K2 = 0 | MAP4K2 = 0 | MAPK1 = 0 | MAPK4 = 0 | MAPKAPK2 = 0 | MKNK1 = 0 | NTRK2 = 0 | NTRK3 = 0 | PAK4 = 0 | PBK 0 | PDGFRB 0 | PDK1 = 0

CN1CC[C@H](c2c(O)cc(O)c3c(=O)cc(-c4ccc(C(F)(F)F)cc4Cl)oc23)[C@H]1CO [(2S,3R)-Voruciclib (hydrochloride)] (2.5 µM)
inactive: IRAK3 = 0 | JAK1 = 0 | LCK 0 | LIMK1 = 0 | LIMK2 = 0 | LMTK2 = 0 | LYN 0 | MAP2K1 = 0 | MAP2K2 = 0 | MAP4K2 = 0 | MAPK1 = 0 | MAPK4 = 0 | MAPKAPK2 = 0 | MKNK1 = 0 | NTRK2 = 0 | NTRK3 = 0 | PAK4 = 0 | PBK 0 | PDGFRB 0 | PDK1 = 0

(list continues)

CN(C)Cc1cccc(N=C(c2ccccc2)c2c(O)[nH]c3cc(C(=O)N(C)C)ccc23)c1 (10 µM)
inactive: IRAK3 = 0 | JAK1 = 0 | LCK 0 | LIMK1 = 0 | LIMK2 = 0 | LMTK2 = 0 | LYN 0 | MAP2K1 = 0 | MAP2K2 = 0 | MAP4K2 = 0 | MAPK1 = 0 | MAPK4 = 0 | MAPKAPK2 = 0 | MKNK1 = 0 | NTRK2 = 0 | NTRK3 = 0 | PAK4 = 0 | PBK 0 | PDGFRB 0 | PDK1 = 0

Nc1nc2cc(-c3ccc4ncc(C(=O)N5CCOCC5)n4c3)ccc2o1 [Serabelisib] (10 µM)
inactive: IRAK3 = 0 | JAK1 = 0 | LCK 0 | LIMK1 = 0 | LIMK2 = 0 | LMTK2 = 0 | LYN 0 | MAP2K1 = 0 | MAP2K2 = 0 | MAP4K2 = 0 | MAPK1 = 0 | MAPK4 = 0 | MAPKAPK2 = 0 | MKNK1 = 0 | NTRK2 = 0 | NTRK3 = 0 | PAK4 = 0 | PBK 0 | PDGFRB 0 | PDK1 = 0

c1ccc(-c2nn3c(c2-c2ccnc4cc(OCCN5CCOCC5)ccc24)CCC3)nc1 (10 µM)
inactive: IRAK3 = 0 | JAK1 = 0 | LCK 0 | LIMK1 = 0 | LIMK2 = 0 | LMTK2 = 0 | LYN 0 | MAP2K1 = 0 | MAP2K2 = 0 | MAP4K2 = 0 | MAPK1 = 0 | MAPK4 = 0 | MAPKAPK2 = 0 | MKNK1 = 0 | NTRK2 = 0 | NTRK3 = 0 | PAK4 = 0 | PBK 0 | PDGFRB 0 | PDK1 = 0

CN(C)Cc1cccc(N=C(c2ccccc2)c2c(O)[nH]c3cc(C(N)=O)ccc23)c1 (10 µM)
inactive: IRAK3 = 0 | JAK1 = 0 | LCK 0 | LIMK1 = 0 | LIMK2 = 0 | LMTK2 = 0 | LYN 0 | MAP2K1 = 0 | MAP2K2 = 0 | MAP4K2 = 0 | MAPK1 = 0 | MAPK4 = 0 | MAPKAPK2 = 0 | MKNK1 = 0 | NTRK2 = 0 | NTRK3 = 0 | PAK4 = 0 | PBK 0 | PDGFRB 0 | PDK1 = 0

O=C(CO)N1CCC(c2n[nH]c(-c3ccc(Cl)cc3)c2-c2ccncn2)CC1 (10 µM)
inactive: IRAK3 = 0 | JAK1 = 0 | LCK 0 | LIMK1 = 0 | LIMK2 = 0 | LMTK2 = 0 | LYN 0 | MAP2K1 = 0 | MAP2K2 = 0 | MAP4K2 = 0 | MAPK1 = 0 | MAPK4 = 0 | MAPKAPK2 = 0 | MKNK1 = 0 | NTRK2 = 0 | NTRK3 = 0 | PAK4 = 0 | PBK 0 | PDGFRB 0 | PDK1 = 0

Cn1ncc(Cl)c1-c1cc(C(=O)N[C@H](CN)Cc2ccc(F)c(F)c2)sc1Cl (10 µM)
inactive: IRAK3 = 0 | JAK1 = 0 | LCK 0 | LIMK1 = 0 | LIMK2 = 0 | LMTK2 = 0 | LYN 0 | MAP2K1 = 0 | MAP2K2 = 0 | MAP4K2 = 0 | MAPK1 = 0 | MAPK4 = 0 | MAPKAPK2 = 0 | MKNK1 = 0 | NTRK2 = 0 | NTRK3 = 0 | PAK4 = 0 | PBK 0 | PDGFRB 0 | PDK1 = 0

Cc1ccc(-c2ncn(-c3ccc(Nc4nccc(-c5cccc(N6CCOCC6)c5)n4)cc3)n2)cn1 (10 µM)
inactive: IRAK3 = 0 | JAK1 = 0 | LCK 0 | LIMK1 = 0 | LIMK2 = 0 | LMTK2 = 0 | LYN 0 | MAP2K1 = 0 | MAP2K2 = 0 | MAP4K2 = 0 | MAPK1 = 0 | MAPK4 = 0 | MAPKAPK2 = 0 | MKNK1 = 0 | NTRK2 = 0 | NTRK3 = 0 | PAK4 = 0 | PBK 0 | PDGFRB 0 | PDK1 = 0

CC(=O)Nc1nc2ccc(-c3cnc(C)c(NC(=O)OC4CCCCC4)c3)cc2s1 (10 µM)
inactive: IRAK3 = 0 | JAK1 = 0 | LCK 0 | LIMK1 = 0 | LIMK2 = 0 | LMTK2 = 0 | LYN 0 | MAP2K1 = 0 | MAP2K2 = 0 | MAP4K2 = 0 | MAPK1 = 0 | MAPK4 = 0 | MAPKAPK2 = 0 | MKNK1 = 0 | NTRK2 = 0 | NTRK3 = 0 | PAK4 = 0 | PBK 0 | PDGFRB 0 | PDK1 = 0

COC(=O)[C@@]1(C)CC[C@]2(C(=O)O)CC[C@]3(C)C(=CC[C@@H]4[C@@]5(C)C[C@H](O)[C@H](O[C@@H]6OC[C@@H](O[C@@H]7O[C@H](CO)[C@@H](O)[C@H](O)[C@H]7O)[C@H](O)[C@H]6O)[C@@](C)(CO)[C@@H]5CC[C@]43C)[C@@H]2C1 [Esculentoside A] (10 µM)
inactive: IRAK3 = 0 | JAK1 = 0 | LCK 0 | LIMK1 = 0 | LIMK2 = 0 | LMTK2 = 0 | LYN 0 | MAP2K1 = 0 | MAP2K2 = 0 | MAP4K2 = 0 | MAPK1 = 0 | MAPK4 = 0 | MAPKAPK2 = 0 | MKNK1 = 0 | NTRK2 = 0 | NTRK3 = 0 | PAK4 = 0 | PBK 0 | PDGFRB 0 | PDK1 = 0

— the supplement of paper PMC12823440, “Inhibitors supercharge kinase turnover through native proteolytic circuits” (Nature, 2025)
